Source: paper PMC3910116, “Super Spy variants implicate flexibility in chaperone action” (eLife, 2014)
Results are given in words; binding and its absence hold for the method and conditions named. Some results given as binding are weak or reduced against the parent protein; the word gives no strength.

Sequences of proteins named here, by UniProt entry; tags and fusion partners are left off. Residues count along the entry.
UniProt Q03708, residues 6-45: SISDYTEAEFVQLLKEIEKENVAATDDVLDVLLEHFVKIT

Key:
[1] = target: Im7 7-45 peptide (UniProt Q03708); experiment: cross-linking; CBDPS-H8/D8 (amine-reactive, 14 Å), 50 µM; Spy and Im7 7-45 both 26 µM in PBS pH 7.4, 30 min at 25°C; trypsin or proteinase K digest, avidin enrichment, LC-MS/MS; both purified
[2] = target: Im7 7-45 peptide (UniProt Q03708); experiment: HDX-MS; top-down ECD-FTICR-MS; 25 µM Spy (dimer) and 100 µM Im7 peptide (1:4), 10 mM ammonium acetate, 80% D2O, labelling time 10 s; both purified
[3] = target: Im7 7-45 peptide (UniProt Q03708); experiment: cross-linking; EDC (zero-length, carboxyl/amine reactive), 30 mM; 26 µM Spy and 26 µM equimolar unlabelled and 15N-labelled Im7 7-45 in PBS pH 7.4, 30 min at 25°C; LC-MS/MS; both purified
[4] = target: Im7 7-45 peptide (UniProt Q03708); experiment: cross-linking; ABAS-12C6/13C6 (photo-reactive, 7 Å), 100 nM; Spy and Im7 7-45 both 26 µM in PBS pH 7.4, 30 min at 25°C then 10 min UV; LC-MS/MS; both purified
[5] = target: Im7 7-45 peptide (UniProt Q03708); experiment: cross-linking; PICUP (zero-length, tyrosine reactive); 26 µM Spy and 26 µM equimolar unlabelled and 15N-labelled Im7 7-45 in PBS pH 7.4; LC-MS/MS; both purified

Measured: binding

B1: Spy (wild type) (protein, UniProt P77754 24-161)
chain: SADTTTAAPADAKPMMHHKGKFGPHQDMMFKDLNLTDAQKQQIREIMKGQRDQMKRPPLEERRAMHDIIASDTFDKVKAEAQIAKMEEQRKANMLAHMETQNKIYNILTPEQKKQFNANFEKRLTERPAAKGKMPATAE
binds: [1] | [2] | [3] | [4] | [5]
